Results: the supplement of paper PMC7666118
This is one part of the list.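 How the source made its calls: active = dose-dependent thermal stabilisation significant by F-test of dose-response against flat model at 10% FDR; inactive = not significant.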

Sequences of proteins named here, by UniProt entry; tags and fusion partners are left off. A change or cut given only in a name is not applied to a line headed by its entry.
UniProt P48506: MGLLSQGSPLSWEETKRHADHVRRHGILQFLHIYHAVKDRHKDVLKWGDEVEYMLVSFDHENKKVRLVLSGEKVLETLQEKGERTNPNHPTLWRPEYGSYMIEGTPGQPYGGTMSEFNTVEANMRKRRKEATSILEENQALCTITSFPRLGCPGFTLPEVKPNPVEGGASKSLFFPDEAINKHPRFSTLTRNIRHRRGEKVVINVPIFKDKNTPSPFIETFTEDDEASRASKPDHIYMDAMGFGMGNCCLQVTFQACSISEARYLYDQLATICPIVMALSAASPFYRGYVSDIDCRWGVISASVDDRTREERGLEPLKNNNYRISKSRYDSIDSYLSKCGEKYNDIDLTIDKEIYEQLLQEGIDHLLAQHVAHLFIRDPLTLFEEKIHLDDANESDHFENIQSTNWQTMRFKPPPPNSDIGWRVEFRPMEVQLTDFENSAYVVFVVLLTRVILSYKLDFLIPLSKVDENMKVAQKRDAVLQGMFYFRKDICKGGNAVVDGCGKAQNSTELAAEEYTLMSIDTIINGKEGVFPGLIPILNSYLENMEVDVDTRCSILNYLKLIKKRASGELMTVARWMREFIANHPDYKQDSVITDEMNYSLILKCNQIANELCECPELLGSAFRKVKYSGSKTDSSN
UniProt P19367: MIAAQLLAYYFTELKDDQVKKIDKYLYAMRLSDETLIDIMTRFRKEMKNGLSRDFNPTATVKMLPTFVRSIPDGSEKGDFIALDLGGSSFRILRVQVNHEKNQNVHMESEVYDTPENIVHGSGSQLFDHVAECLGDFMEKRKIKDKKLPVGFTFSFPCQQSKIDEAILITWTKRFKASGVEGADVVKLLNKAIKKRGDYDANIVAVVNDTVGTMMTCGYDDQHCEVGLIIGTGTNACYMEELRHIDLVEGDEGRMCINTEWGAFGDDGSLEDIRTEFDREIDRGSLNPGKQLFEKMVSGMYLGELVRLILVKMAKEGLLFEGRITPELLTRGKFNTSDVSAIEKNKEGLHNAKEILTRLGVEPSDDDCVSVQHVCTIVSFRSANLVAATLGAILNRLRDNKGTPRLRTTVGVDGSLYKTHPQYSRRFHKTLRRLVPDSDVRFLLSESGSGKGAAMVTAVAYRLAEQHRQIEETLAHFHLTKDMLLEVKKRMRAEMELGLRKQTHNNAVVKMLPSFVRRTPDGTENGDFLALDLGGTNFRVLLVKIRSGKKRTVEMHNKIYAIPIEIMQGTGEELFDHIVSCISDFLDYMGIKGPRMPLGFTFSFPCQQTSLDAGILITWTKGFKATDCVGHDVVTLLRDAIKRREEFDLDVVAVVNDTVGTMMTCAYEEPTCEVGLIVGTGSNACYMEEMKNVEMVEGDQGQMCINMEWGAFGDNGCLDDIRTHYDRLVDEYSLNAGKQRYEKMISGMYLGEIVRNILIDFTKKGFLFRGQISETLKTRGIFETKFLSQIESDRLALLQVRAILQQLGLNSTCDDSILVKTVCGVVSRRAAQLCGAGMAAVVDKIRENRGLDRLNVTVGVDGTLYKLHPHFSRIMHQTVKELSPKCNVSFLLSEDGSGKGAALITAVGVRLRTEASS
UniProt O75330: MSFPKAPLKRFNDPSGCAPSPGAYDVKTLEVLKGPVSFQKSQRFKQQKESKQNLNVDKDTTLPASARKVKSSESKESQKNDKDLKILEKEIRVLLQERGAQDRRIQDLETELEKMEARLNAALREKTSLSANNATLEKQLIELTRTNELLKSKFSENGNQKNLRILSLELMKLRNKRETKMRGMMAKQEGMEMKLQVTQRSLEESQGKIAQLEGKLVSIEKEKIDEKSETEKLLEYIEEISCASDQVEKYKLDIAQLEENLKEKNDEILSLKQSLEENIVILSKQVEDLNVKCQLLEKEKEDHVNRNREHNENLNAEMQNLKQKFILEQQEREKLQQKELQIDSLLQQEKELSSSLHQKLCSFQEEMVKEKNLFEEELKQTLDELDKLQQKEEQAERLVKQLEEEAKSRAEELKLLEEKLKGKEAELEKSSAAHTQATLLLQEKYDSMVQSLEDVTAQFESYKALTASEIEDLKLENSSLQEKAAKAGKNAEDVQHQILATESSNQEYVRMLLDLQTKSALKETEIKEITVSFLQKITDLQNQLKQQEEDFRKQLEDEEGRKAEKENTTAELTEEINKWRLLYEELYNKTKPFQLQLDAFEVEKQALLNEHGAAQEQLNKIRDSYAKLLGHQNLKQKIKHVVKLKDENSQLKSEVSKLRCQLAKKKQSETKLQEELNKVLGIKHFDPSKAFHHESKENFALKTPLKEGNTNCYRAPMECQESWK
UniProt P48507: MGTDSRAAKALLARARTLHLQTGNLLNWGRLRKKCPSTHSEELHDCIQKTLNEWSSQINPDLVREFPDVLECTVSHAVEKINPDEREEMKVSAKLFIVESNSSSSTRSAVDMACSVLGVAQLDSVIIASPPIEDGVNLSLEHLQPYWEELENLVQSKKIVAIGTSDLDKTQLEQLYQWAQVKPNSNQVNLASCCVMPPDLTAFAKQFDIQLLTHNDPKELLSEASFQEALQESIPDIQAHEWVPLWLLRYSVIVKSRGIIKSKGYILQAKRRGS
UniProt Q9UKD1: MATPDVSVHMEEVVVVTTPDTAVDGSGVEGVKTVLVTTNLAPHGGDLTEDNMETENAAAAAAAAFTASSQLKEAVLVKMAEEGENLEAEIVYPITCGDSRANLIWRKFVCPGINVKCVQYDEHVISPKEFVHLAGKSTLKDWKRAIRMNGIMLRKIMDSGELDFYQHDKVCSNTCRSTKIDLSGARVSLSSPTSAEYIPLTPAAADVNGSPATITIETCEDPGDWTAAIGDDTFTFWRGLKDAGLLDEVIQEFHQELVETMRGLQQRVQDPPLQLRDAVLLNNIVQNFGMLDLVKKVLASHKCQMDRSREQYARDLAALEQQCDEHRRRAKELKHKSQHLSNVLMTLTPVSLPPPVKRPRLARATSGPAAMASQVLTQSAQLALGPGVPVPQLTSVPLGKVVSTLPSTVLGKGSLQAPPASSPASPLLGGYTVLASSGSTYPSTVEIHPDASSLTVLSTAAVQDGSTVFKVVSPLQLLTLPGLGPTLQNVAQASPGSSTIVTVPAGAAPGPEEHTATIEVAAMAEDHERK
UniProt Q01581: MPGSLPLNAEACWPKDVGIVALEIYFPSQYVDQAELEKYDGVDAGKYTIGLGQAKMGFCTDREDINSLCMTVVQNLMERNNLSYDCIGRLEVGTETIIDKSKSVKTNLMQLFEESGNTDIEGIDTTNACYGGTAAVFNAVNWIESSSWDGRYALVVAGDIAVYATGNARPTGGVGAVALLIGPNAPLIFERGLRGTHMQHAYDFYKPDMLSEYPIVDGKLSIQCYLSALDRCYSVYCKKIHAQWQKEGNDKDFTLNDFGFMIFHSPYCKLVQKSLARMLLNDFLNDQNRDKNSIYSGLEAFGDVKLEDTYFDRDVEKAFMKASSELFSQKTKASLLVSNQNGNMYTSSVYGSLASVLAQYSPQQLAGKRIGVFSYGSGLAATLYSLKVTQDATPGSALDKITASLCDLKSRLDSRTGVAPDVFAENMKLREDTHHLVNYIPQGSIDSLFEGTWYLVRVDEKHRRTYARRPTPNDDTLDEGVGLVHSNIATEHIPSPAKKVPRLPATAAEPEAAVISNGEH
UniProt Q96IJ6: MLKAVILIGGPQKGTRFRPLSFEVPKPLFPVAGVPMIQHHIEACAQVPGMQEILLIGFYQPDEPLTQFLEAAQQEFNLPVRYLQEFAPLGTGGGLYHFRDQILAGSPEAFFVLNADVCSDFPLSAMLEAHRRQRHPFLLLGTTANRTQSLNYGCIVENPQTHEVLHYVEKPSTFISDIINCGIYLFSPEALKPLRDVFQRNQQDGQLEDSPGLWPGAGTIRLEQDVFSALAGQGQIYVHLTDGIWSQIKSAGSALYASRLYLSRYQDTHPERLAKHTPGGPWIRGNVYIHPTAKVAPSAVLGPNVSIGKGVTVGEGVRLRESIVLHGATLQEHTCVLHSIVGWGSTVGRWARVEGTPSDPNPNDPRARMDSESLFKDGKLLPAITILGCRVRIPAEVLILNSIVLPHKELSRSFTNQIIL
UniProt Q9H0R8, whole entry, looked up: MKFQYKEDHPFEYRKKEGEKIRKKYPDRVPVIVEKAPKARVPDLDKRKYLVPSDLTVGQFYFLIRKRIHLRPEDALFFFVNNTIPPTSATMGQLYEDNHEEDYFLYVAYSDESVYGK
UniProt Q5T3I0: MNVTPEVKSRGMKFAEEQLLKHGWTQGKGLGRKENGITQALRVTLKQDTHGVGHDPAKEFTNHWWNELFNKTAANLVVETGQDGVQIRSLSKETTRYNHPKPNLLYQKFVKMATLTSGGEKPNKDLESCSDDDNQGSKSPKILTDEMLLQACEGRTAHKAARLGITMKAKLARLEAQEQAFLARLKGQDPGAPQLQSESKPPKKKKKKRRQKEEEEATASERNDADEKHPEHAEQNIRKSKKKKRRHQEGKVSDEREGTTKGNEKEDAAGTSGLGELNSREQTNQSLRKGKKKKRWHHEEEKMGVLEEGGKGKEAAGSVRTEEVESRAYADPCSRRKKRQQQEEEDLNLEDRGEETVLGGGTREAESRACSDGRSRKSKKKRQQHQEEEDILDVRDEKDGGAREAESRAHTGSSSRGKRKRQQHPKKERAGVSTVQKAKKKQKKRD
UniProt Q13588: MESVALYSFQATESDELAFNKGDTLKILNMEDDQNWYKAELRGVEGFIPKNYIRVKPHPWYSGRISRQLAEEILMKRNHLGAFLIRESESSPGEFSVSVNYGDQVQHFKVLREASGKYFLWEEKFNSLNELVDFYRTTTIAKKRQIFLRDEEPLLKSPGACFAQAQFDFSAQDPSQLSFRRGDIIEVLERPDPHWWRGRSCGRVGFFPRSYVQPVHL
UniProt P07902: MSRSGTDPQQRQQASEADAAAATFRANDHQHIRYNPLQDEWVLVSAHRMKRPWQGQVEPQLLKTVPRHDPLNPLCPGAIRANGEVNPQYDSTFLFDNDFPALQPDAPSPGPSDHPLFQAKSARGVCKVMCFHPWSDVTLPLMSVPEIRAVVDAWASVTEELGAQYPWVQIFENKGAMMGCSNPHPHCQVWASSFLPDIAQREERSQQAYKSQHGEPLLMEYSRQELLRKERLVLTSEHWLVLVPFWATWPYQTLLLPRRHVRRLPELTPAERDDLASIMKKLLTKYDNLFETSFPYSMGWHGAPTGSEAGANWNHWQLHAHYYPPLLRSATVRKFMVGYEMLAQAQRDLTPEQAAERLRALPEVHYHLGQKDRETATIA
UniProt Q9BW71: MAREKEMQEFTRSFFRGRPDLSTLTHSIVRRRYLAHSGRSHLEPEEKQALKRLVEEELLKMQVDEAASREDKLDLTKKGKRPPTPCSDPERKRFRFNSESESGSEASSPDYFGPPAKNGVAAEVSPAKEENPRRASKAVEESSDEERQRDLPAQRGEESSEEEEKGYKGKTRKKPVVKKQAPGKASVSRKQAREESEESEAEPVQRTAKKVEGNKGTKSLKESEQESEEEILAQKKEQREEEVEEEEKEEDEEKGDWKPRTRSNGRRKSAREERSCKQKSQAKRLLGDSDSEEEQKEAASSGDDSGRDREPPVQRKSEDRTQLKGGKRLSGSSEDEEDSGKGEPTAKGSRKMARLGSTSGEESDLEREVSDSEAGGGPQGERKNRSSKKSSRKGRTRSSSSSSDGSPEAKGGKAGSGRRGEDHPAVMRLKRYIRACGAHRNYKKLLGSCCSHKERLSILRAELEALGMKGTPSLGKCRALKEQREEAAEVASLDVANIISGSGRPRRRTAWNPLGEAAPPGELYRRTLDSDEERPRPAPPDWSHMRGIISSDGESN
UniProt Q9HAV7: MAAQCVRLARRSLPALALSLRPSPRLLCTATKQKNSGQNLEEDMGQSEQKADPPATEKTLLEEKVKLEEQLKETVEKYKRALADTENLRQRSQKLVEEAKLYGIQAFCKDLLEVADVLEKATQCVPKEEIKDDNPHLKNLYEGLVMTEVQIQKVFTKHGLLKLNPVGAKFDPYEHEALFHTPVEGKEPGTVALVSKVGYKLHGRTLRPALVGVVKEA
UniProt P17096: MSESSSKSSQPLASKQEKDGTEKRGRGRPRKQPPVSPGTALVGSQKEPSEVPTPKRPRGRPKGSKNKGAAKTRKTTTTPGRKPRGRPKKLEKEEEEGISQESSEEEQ
UniProt P31937: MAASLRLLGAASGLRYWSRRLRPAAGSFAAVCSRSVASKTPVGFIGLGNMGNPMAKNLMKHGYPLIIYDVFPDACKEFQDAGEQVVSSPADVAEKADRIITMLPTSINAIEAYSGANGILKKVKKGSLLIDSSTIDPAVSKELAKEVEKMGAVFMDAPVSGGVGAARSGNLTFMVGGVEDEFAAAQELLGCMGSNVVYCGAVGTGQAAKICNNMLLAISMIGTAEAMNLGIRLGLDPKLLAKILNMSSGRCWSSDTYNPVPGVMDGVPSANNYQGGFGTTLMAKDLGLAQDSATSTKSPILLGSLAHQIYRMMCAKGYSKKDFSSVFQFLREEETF
UniProt O15347: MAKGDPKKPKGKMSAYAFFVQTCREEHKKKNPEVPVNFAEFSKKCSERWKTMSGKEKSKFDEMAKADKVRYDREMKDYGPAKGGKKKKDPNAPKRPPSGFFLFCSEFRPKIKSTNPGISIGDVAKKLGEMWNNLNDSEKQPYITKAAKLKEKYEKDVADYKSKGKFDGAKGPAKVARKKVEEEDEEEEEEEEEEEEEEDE

Each target was assayed with Nc1nc2c(ncn2[C@@H]2O[C@H](COP(=O)(O)OP(=O)(O)OP(=O)(O)O)[C@@H](O)[C@H]2O)c(=O)[nH]1 (assay: dose-dependent thermal stabilisation call (2D-TPP, DLPTP, 10% FDR) (binary (1 = stabilised)); higher = stabilised by the compound). Settings: system: Jurkat gel-filtered lysate; concentration range 1-500 µM.

| Target | dose-dependent thermal stabilisation call |
| --- | --- |
| H6PD (UniProt O95479) | inactive: 0 |
| GCLC (UniProt P48506) | inactive: 0 |
| GGH (UniProt Q92820) | inactive: 0 |
| HIST1H2AG, HIST1H2AI, HIST1H2AK, HIST1H2AL, HIST1H2AM (UniProt P0C0S8) | inactive: 0 |
| HK1 (UniProt P19367) | active: 1 |
| HMMR (UniProt O75330) | inactive: 0 |
| GCLM (UniProt P48507) | inactive: 0 |
| GMEB2 (UniProt Q9UKD1) | inactive: 0 |
| HNRNPF (UniProt P52597) | inactive: 0 |
| HMGCS1 (UniProt Q01581) | inactive: 0 |
| GLUD1 (UniProt P00367) | inactive: 0 |
| GMPPA (UniProt Q96IJ6) | active: 1 |
| GABARAPL1 (UniProt Q9H0R8) | inactive: 0 |
| GPATCH4 (UniProt Q5T3I0) | inactive: 0 |
| GANAB (UniProt Q14697) | inactive: 0 |
| HERC1 (UniProt Q15751) | inactive: 0 |
| HDAC1 (UniProt Q13547) | inactive: 0 |
| HNRNPA2B1 (UniProt P22626) | inactive: 0 |

| Target | dose-dependent thermal stabilisation call |
| --- | --- |
| GLRX3 (UniProt O76003) | inactive: 0 |
| GAA (UniProt P10253) | inactive: 0 |
| UniProt G9CGD6 | inactive: 0 |
| HNRNPD (UniProt Q14103) | inactive: 0 |
| HEMGN (UniProt Q9BXL5) | inactive: 0 |
| GRAP (UniProt Q13588) | active: 1 |
| HDAC4 (UniProt P56524) | inactive: 0 |
| GALT (UniProt P07902) | inactive: 0 |
| HIRIP3 (UniProt Q9BW71) | inactive: 0 |
| GOT2 (UniProt P00505) | inactive: 0 |
| GRPEL1 (UniProt Q9HAV7) | inactive: 0 |
| GSTM3 (UniProt P21266) | active: 1 |
| HMGA1 (UniProt P17096) | inactive: 0 |
| GTF3C4 (UniProt Q9UKN8) | active: 1 |
| GSK3B (UniProt P49841) | active: 1 |
| HIBADH (UniProt P31937) | inactive: 0 |
| HMGB3 (UniProt O15347) | inactive: 0 |
| HDLBP (UniProt Q00341) | active: 1 |

Retrieved one by one from the list above, 2 records:

| Target | dose-dependent thermal stabilisation call |
| --- | --- |
| GPATCH4 (UniProt Q5T3I0) | inactive: 0 |
| GSK3B (UniProt P49841) | active: 1 |
